Values from PubChem BioAssay AID1508588 (Peter MacCallum Cancer Centre, 2020).
The deposit covers about 18,000 reagents; shown is a part drawn at random. In the full data, 790 (4.4%) are marked active. 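Calls rest on a combination of fold-change classes in drug and vehicle arms, not all shown here.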

- Assay: 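Knock-downs boosting vemurafenib effects on melanoma cell growth or lactate release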 (primary screen)
- Cells: human WM266.4 melanoma cells (BRAF V600 mutant)
- Knock-down reagent: siRNA pool against human genes, 40 nM
- Duration: 96 h from transfection to read-out
- Challenge: vemurafenib 300 nM (about IC25), added 48 h after transfection, for 48 h; comparison arm got DMSO vehicle only
- Measured: 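Cell gain (DAPI nuclei at end minus before drug, mean of two replicates) and medium lactate by absorbance per cell, both as ratio to non-targeting siRNA, also grouped into fold-change classes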
- Reading the numbers: cell gain with vemurafenib: higher = more cell gain than with non-targeting siRNA; lactate per cell with vemurafenib: higher = more lactate made per cell
- Call rule: 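Enhancement is called by pairing each knock-down's vehicle-arm and drug-arm fold-change classes for viability or glycolysis; which class combinations qualify is not given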
- Meaning of the calls: active = enhances vemurafenib effect; inactive = no enhancement seen

Against GCDH the deposit lists cell gain with vemurafenib 0.86; lactate per cell with vemurafenib 1.36; inactive.
Depletion of GSX2 gave: cell gain with vemurafenib 0.72; lactate per cell with vemurafenib 0.84; inactive.
SLC10A7 gave cell gain with vemurafenib 0.56; lactate per cell with vemurafenib 1.07; inactive.
Depletion of ZNF644 came out at: cell gain with vemurafenib 0.74; lactate per cell with vemurafenib 0.67; inactive.
For NOVA2, the entry reads cell gain with vemurafenib 0.64; lactate per cell with vemurafenib 1.05; inactive.
After knock-down of GOLM1, the screen gave cell gain with vemurafenib 0.38; lactate per cell with vemurafenib 0.64; inactive.
PHETA2 gave cell gain with vemurafenib 0.43; lactate per cell with vemurafenib 0.86; inactive.
Depletion of CAMKK2 gave: cell gain with vemurafenib 0.9; lactate per cell with vemurafenib 0.56; inactive.
With knock-down of APPL2, the record shows cell gain with vemurafenib 0.75; lactate per cell with vemurafenib 1.57; inactive.
FGF4 showed cell gain with vemurafenib 0.4; lactate per cell with vemurafenib 0.63; inactive.
After knock-down of SPINT1 the results were cell gain with vemurafenib 0.36; lactate per cell with vemurafenib 0.92; inactive.
With knock-down of ANKS1B, the screen gave cell gain with vemurafenib 0.79; lactate per cell with vemurafenib 0.9; inactive.
After knock-down of ZC3H12B, the screen gave cell gain with vemurafenib 0.29; lactate per cell with vemurafenib 0.64; inactive.
After knock-down of PWWP3A, the screen gave cell gain with vemurafenib 0.86; lactate per cell with vemurafenib 1.17; inactive.
Knock-down of FAR1 resulted in: cell gain with vemurafenib 0.21; lactate per cell with vemurafenib 0.08; active.
Against TAS2R20, the entry reads cell gain with vemurafenib 0.59; lactate per cell with vemurafenib 0.86; inactive.
Against HSPD1, the values are cell gain with vemurafenib 0.84; lactate per cell with vemurafenib 0.7; inactive.
SLC7A13 scored cell gain with vemurafenib 0.64; lactate per cell with vemurafenib 1.65; inactive.
For OBSL1, the entry reads cell gain with vemurafenib 0.04; lactate per cell with vemurafenib 3.12; inactive.
PLAT scored cell gain with vemurafenib 0.63; lactate per cell with vemurafenib 0.98; inactive.
Knock-down of LRRIQ1 resulted in: cell gain with vemurafenib 1.65; lactate per cell with vemurafenib 0.77; inactive.
Knock-down of ELAVL1 resulted in: cell gain with vemurafenib 0.45; lactate per cell with vemurafenib 1.41; inactive.
CLEC3A showed cell gain with vemurafenib 0.5; lactate per cell with vemurafenib 1.55; inactive.
Silencing of BLOC1S3 gave: cell gain with vemurafenib 0.76; lactate per cell with vemurafenib 1.03; inactive.
Knock-down of LRRD1 resulted in: cell gain with vemurafenib 0.69; lactate per cell with vemurafenib 0.72; inactive.
With knock-down of NFU1 the results were cell gain with vemurafenib 0.56; lactate per cell with vemurafenib 0.66; active.
C20orf204 gave cell gain with vemurafenib 0.49; lactate per cell with vemurafenib 0.93; inactive.
With knock-down of ATP6V1E2, the record shows cell gain with vemurafenib 0.71; lactate per cell with vemurafenib 1.56; inactive.
GALE gave cell gain with vemurafenib 0.71; lactate per cell with vemurafenib 0.74; inactive.
Against POU5F1 the deposit lists cell gain with vemurafenib 0.8; lactate per cell with vemurafenib 1.05; inactive.
Silencing of CARMIL3 gave: cell gain with vemurafenib 0.75; lactate per cell with vemurafenib 1.37; inactive.
Against DFFB, the entry reads cell gain with vemurafenib 0.58; lactate per cell with vemurafenib 1.4; inactive.
Knock-down of GPR42 gave: cell gain with vemurafenib 0.55; lactate per cell with vemurafenib 1.86; inactive.
Depletion of UBQLNL gave: cell gain with vemurafenib 0.85; lactate per cell with vemurafenib 0.88; inactive.
For ADGRD2, the entry reads cell gain with vemurafenib 0.53; lactate per cell with vemurafenib 1.3; inactive.
After knock-down of GPCPD1 the results were cell gain with vemurafenib 0.26; lactate per cell with vemurafenib 2.62; inactive.
With knock-down of ARHGAP44, the record shows cell gain with vemurafenib 0.62; lactate per cell with vemurafenib 0.72; inactive.
Against TEX29 the deposit lists cell gain with vemurafenib 0.62; lactate per cell with vemurafenib 0.7; inactive.
Depletion of LRAT came out at: cell gain with vemurafenib 0.73; lactate per cell with vemurafenib 0.55; inactive.
With knock-down of RASD1, the screen gave cell gain with vemurafenib 0.37; lactate per cell with vemurafenib 1.15; inactive.
Knock-down of RERG resulted in: cell gain with vemurafenib 1.15; lactate per cell with vemurafenib 0.6; inactive.
After knock-down of RNF207, the screen gave cell gain with vemurafenib 0.43; lactate per cell with vemurafenib 0.66; inactive.
Silencing of CBLN4 resulted in: cell gain with vemurafenib 0.26; lactate per cell with vemurafenib 1.17; inactive.
Knock-down of HSPB6 resulted in: cell gain with vemurafenib 0.51; lactate per cell with vemurafenib 0.12; active.
ICE2 gave cell gain with vemurafenib 0.77; lactate per cell with vemurafenib 0.9; inactive.
DGAT2 scored cell gain with vemurafenib 0.22; lactate per cell with vemurafenib 1.97; inactive.
NFIC scored cell gain with vemurafenib 0.87; lactate per cell with vemurafenib 0.88; inactive.
With knock-down of EIF1AY, the screen gave cell gain with vemurafenib 0.97; lactate per cell with vemurafenib 1.18; inactive.
Knock-down of HNRNPH3 came out at: cell gain with vemurafenib 0.16; lactate per cell with vemurafenib 0.5; inactive.
With knock-down of TACSTD2, the record shows cell gain with vemurafenib 0.53; lactate per cell with vemurafenib 0.6; inactive.
After knock-down of FBXO5, the record shows cell gain with vemurafenib 0.73; lactate per cell with vemurafenib 0.86; inactive.
For CHDH, the entry reads cell gain with vemurafenib 0.88; lactate per cell with vemurafenib 0.7; inactive.

Active calls, of those listed so far:
FAR1: cell gain with vemurafenib = 0.21; lactate per cell with vemurafenib = 0.08; outcome = active
NFU1: cell gain with vemurafenib = 0.56; lactate per cell with vemurafenib = 0.66; outcome = active
HSPB6: cell gain with vemurafenib = 0.51; lactate per cell with vemurafenib = 0.12; outcome = active
